PubChem BioAssay AID1508597, Cure First, 2020

Test: 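Survival screen with siRNA in ovarian cancer cells derived from patients, with or without rucaparib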 (primary screen)
Cells: human ovarian carcinoma lines grown from tumours: OCI-P5x (papillary serous) and OCI-C5x (clear cell)
Reagents: siRNA pool against human genes, 1.25 pmol siRNA per well
Timing: 72 h or 96 h, depending on the cell culture
Conditions: rucaparib 20 µM (about IC30) or vehicle, present until read-out
Rucaparib or vehicle: Rucaparib
Cell line: OCI-C5x (clear cell)
Read-out: 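Luminescent ATP-based viability assay read 72 or 96 h after transfection, depending on culture, given as normalised percent viability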
Reading the numbers: viability, normalised: higher = more viable cells remaining
Active means: 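Active when normalised viability falls below 80 percent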
Calls: active = viability under 80%; inactive = viability 80% or more
Shown is a random part of the about 2,100 reagents, under one of the conditions tested. 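Calls flag viability under 80% in either arm, not effects specific to rucaparib; the reference for percent is not stated.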 Not given: the 100% reference.

With ARID1A, technical replicate 1, how do the results read?
viability, normalised (%): 57.4; Outcome: active

How did the screen score ARID1A, technical replicate 2?
viability, normalised (%): 66.3; Outcome: active

Which result is listed for ARID1A, technical replicate 3?
viability, normalised (%): 67.8; Outcome: active

With PHKA1, technical replicate 1, what was measured?
viability, normalised (%): 66; Outcome: active

With PHKA1, technical replicate 2, how do the results read?
viability, normalised (%): 57.9; Outcome: active

How did the screen score PHKA1, technical replicate 3?
viability, normalised (%): 50.9; Outcome: active

Which result is listed for MBD1, technical replicate 1?
viability, normalised (%): 54; Outcome: active

What did the screen give for MBD1, technical replicate 2?
viability, normalised (%): 33.4; Outcome: active

How did the screen score MBD1, technical replicate 3?
viability, normalised (%): 49.5; Outcome: active

With DDX56, technical replicate 1, how do the results read?
viability, normalised (%): 51.2; Outcome: active

For DDX56, technical replicate 2, what was measured?
viability, normalised (%): 41.3; Outcome: active

For DDX56, technical replicate 3, what does the deposit list?
viability, normalised (%): 47.4; Outcome: active

What is on record for POLD2, technical replicate 1?
viability, normalised (%): 48.2; Outcome: active

With POLD2, technical replicate 2, how do the results read?
viability, normalised (%): 51.4; Outcome: active

What is on record for POLD2, technical replicate 3?
viability, normalised (%): 52; Outcome: active

What did the screen give for CLDN5, technical replicate 1?
viability, normalised (%): 60.6; Outcome: active

Which result is listed for CLDN5, technical replicate 2?
viability, normalised (%): 40.9; Outcome: active

With CLDN5, technical replicate 3, how do the results read?
viability, normalised (%): 62.7; Outcome: active

With CLDN23, technical replicate 1, what was measured?
viability, normalised (%): 47.3; Outcome: active

What is on record for CLDN23, technical replicate 2?
viability, normalised (%): 52.2; Outcome: active

What is on record for CLDN23, technical replicate 3?
viability, normalised (%): 33.4; Outcome: active

Records above whose target name starts with C or c:
CLDN5, technical replicate 1: viability, normalised (%) = 60.6; Outcome = active
CLDN5, technical replicate 2: viability, normalised (%) = 40.9; Outcome = active
CLDN5, technical replicate 3: viability, normalised (%) = 62.7; Outcome = active
CLDN23, technical replicate 1: viability, normalised (%) = 47.3; Outcome = active
CLDN23, technical replicate 2: viability, normalised (%) = 52.2; Outcome = active
CLDN23, technical replicate 3: viability, normalised (%) = 33.4; Outcome = active
